# Some of the results follow.
# B1: B936 (Bifidobacterium sp) (protein)
# chain: MKNWKKAIALVASAAALVSVAACGPSNAGGSSDSGKKTVGFVAVGPEGGFRTANEKDIQKAFEDAGFDLTYSPTQNNDQQKQIQAFNKFVNDEVDAIILSSTEDSGWDDSLKKAAEAEIPVFTVDRNVDVKDAEAKKAIVAHIGPSNVWCGEQAAEFVNKNFPDGANGFILEGPAGLSVVKDRGTGWGNKVASNVKVLESQSANWSTDEAKTVTAGLLDKYKSDNPQFIFAQNDEMGLGAAQAVDAAGLKGKVKIITIDGTKNALQALVDGDLSYVIEYNPIFGKETAQAVKDYLDGKTVEKDIEIESKTFDAASAKEALDNNTRAY
# Assays:
# Test in all cases: glycan array binding signal (z-score within array); higher = stronger binding
# Settings in all cases: glycan notation: IUPAC condensed, linker removed
# [1] = biological target: Gal(a1-3)Gal(b1-4)GlcNAc(b1-2)Man
# Outline: (§1)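 The Consortium for Functional Glycomics database supplied 3228 glycan arrays, of which those lacking an available protein sequence were dropped. The binding signal, a within-array Z-score, was averaged across arrays of the same protein sequence and across linkers. Negative scores can be read as non-binding.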
# [2] = biological target: Gal(a1-3)Gal(b1-4)GlcNAc(b1-2)Man(a1-3)[Gal(a1-3)Gal(b1-4)GlcNAc(b1-2)Man(a1-6)]Man(b1-4)GlcNAc(b1-4)GlcNAc
# Outline: as §1
# [3] = biological target: Gal(a1-3)Gal(b1-4)GlcNAc(b1-3)GalNAc
# Outline: as §1
# [4] = biological target: Gal(a1-3)Gal(b1-4)GlcNAc(b1-6)GalNAc
# Outline: as §1
# [5] = biological target: Gal(a1-3)Gal(b1-4)[Fuc(a1-3)]GlcNAc
# Outline: as §1
# [6] = biological target: Gal(a1-3)Gal(b1-4)[Fuc(a1-3)]GlcNAc(b1-2)Man(a1-3)[Gal(a1-3)Gal(b1-4)[Fuc(a1-3)]GlcNAc(b1-2)Man(a1-6)]Man(b1-4)GlcNAc(b1-4)GlcNAc
# Outline: as §1
# Gal(a1-3)GalNAc = biological target: Gal(a1-3)GalNAc
# Outline: as §1
# [7] = biological target: Gal(a1-3)[Gal(a1-4)]Gal(b1-4)GlcNAc
# Outline: as §1
# [8] = biological target: Gal(a1-4)Gal(b1-3)GlcNAc(b1-2)Man(a1-3)[Gal(a1-4)Gal(b1-3)GlcNAc(b1-2)Man(a1-6)]Man(b1-4)GlcNAc(b1-4)GlcNAc
# Outline: as §1
# Gal(a1-4)Gal(b1-4)Glc = biological target: Gal(a1-4)Gal(b1-4)Glc
# Outline: as §1
# Gal(a1-4)Gal(b1-4)GlcNAc = biological target: Gal(a1-4)Gal(b1-4)GlcNAc
# Outline: as §1
# [9] = biological target: Gal(a1-4)Gal(b1-4)GlcNAc(b1-2)Man(a1-3)[Gal(a1-4)Gal(b1-4)GlcNAc(b1-2)Man(a1-6)]Man(b1-4)GlcNAc(b1-4)GlcNAc
# Outline: as §1
# [10] = biological target: Gal(a1-4)Gal(b1-4)GlcNAc(b1-3)Gal(b1-4)Glc
# Outline: as §1
# Gal(a1-4)GlcNAc = biological target: Gal(a1-4)GlcNAc
# Outline: as §1
# Gal(a1-6)Glc = biological target: Gal(a1-6)Glc
# Outline: as §1
# Gal(b1-2)Gal = biological target: Gal(b1-2)Gal
# Outline: as §1
# Gal(b1-3)Gal = biological target: Gal(b1-3)Gal
# Outline: as §1
# Gal(b1-3)Gal(b1-4)GlcNAc = biological target: Gal(b1-3)Gal(b1-4)GlcNAc
# Outline: as §1
# Gal(b1-3)GalNAc = biological target: Gal(b1-3)GalNAc
# Outline: as §1
# [11] = biological target: Gal(b1-3)GalNAc(a1-3)[Fuc(a1-2)]Gal(b1-4)Glc
# Outline: as §1
# [12] = biological target: Gal(b1-3)GalNAc(a1-3)[Fuc(a1-2)]Gal(b1-4)GlcNAc
# Outline: as §1
# Gal(b1-3)GalNAc(b1-3)Gal = biological target: Gal(b1-3)GalNAc(b1-3)Gal
# Outline: as §1
# [13] = biological target: Gal(b1-3)GalNAc(b1-3)Gal(a1-4)Gal(b1-4)Glc
# Outline: as §1
# [14] = biological target: Gal(b1-3)GalNAc(b1-4)Gal(b1-4)Glc
# Outline: as §1
# [15] = biological target: Gal(b1-3)GalNAc(b1-4)[Neu5Ac(a2-3)]Gal(b1-4)Glc
# Outline: as §1
# Gal(b1-3)GlcNAc = biological target: Gal(b1-3)GlcNAc
# Outline: as §1
# [16] = biological target: Gal(b1-3)GlcNAc(a1-3)Gal(b1-4)GlcNAc
# Outline: as §1
# [17] = biological target: Gal(b1-3)GlcNAc(a1-6)Gal(b1-4)GlcNAc
# Outline: as §1
# Gal(b1-3)GlcNAc(b1-2)Man = biological target: Gal(b1-3)GlcNAc(b1-2)Man
# Outline: as §1
# [18] = biological target: Gal(b1-3)GlcNAc(b1-2)Man(a1-3)[Gal(b1-3)GlcNAc(b1-2)Man(a1-6)]Man(b1-4)GlcNAc(b1-4)GlcNAc
# Outline: as §1
# [19] = biological target: Gal(b1-3)GlcNAc(b1-2)Man(a1-3)[Gal(b1-3)GlcNAc(b1-2)Man(a1-6)]Man(b1-4)GlcNAc(b1-4)[Fuc(a1-6)]GlcNAc
# Outline: as §1
# [20] = biological target: Gal(b1-3)GlcNAc(b1-2)Man(a1-3)[GlcNAc(b1-4)][Gal(b1-3)GlcNAc(b1-2)Man(a1-6)]Man(b1-4)GlcNAc(b1-4)GlcNAc
# Outline: as §1
# [21] = biological target: Gal(b1-3)GlcNAc(b1-2)[Gal(b1-3)GlcNAc(b1-6)]Man(a1-6)[Gal(b1-3)GlcNAc(b1-2)Man(a1-3)]Man(b1-4)GlcNAc(b1-4)GlcNAc
# Outline: as §1
# [22] = biological target: Gal(b1-3)GlcNAc(b1-3)Gal(b1-3)GlcNAc
# Outline: as §1
# [23] = biological target: Gal(b1-3)GlcNAc(b1-3)Gal(b1-4)Glc
# Outline: as §1
# [24] = biological target: Gal(b1-3)GlcNAc(b1-3)Gal(b1-4)GlcNAc
# Outline: as §1
# [25] = biological target: Gal(b1-3)GlcNAc(b1-3)Gal(b1-4)GlcNAc(b1-2)Man(a1-3)[Gal(b1-3)GlcNAc(b1-3)Gal(b1-4)GlcNAc(b1-2)Man(a1-6)]Man(b1-4)GlcNAc(b1-4)GlcNAc
# Outline: as §1
binder,measurement,setting,value
B1,glycan array binding signal (z-score),[1],-0.923
same,glycan array binding signal (z-score),[2],0.178
same,glycan array binding signal (z-score),[3],-0.121
same,glycan array binding signal (z-score),[4],-0.248
same,glycan array binding signal (z-score),[5],-0.894
same,glycan array binding signal (z-score),[6],-0.401
same,glycan array binding signal (z-score),Gal(a1-3)GalNAc,0.152
same,glycan array binding signal (z-score),[7],-0.369
same,glycan array binding signal (z-score),[8],1.41
same,glycan array binding signal (z-score),Gal(a1-4)Gal(b1-4)Glc,0.94
same,glycan array binding signal (z-score),Gal(a1-4)Gal(b1-4)GlcNAc,0.366
same,glycan array binding signal (z-score),[9],2.19
same,glycan array binding signal (z-score),[10],0.104
same,glycan array binding signal (z-score),Gal(a1-4)GlcNAc,-0.136
same,glycan array binding signal (z-score),Gal(a1-6)Glc,0.001
same,glycan array binding signal (z-score),Gal(b1-2)Gal,-0.366
same,glycan array binding signal (z-score),Gal(b1-3)Gal,0.891
same,glycan array binding signal (z-score),Gal(b1-3)Gal(b1-4)GlcNAc,11.1
same,glycan array binding signal (z-score),Gal(b1-3)GalNAc,4.57
same,glycan array binding signal (z-score),[11],0.324
same,glycan array binding signal (z-score),[12],-0.084
same,glycan array binding signal (z-score),Gal(b1-3)GalNAc(b1-3)Gal,-0.457
same,glycan array binding signal (z-score),[13],-0.187
same,glycan array binding signal (z-score),[14],-0.182
same,glycan array binding signal (z-score),[15],-0.187
same,glycan array binding signal (z-score),Gal(b1-3)GlcNAc,0.44
same,glycan array binding signal (z-score),[16],-0.62
same,glycan array binding signal (z-score),[17],-0.317
same,glycan array binding signal (z-score),Gal(b1-3)GlcNAc(b1-2)Man,0.248
same,glycan array binding signal (z-score),[18],0.048
same,glycan array binding signal (z-score),[19],0.023
same,glycan array binding signal (z-score),[20],0.045
same,glycan array binding signal (z-score),[21],-0.366
same,glycan array binding signal (z-score),[22],-0.213
same,glycan array binding signal (z-score),[23],1.71
same,glycan array binding signal (z-score),[24],4.33
same,glycan array binding signal (z-score),[25],0.754

# Fetched one by one from the entries so far (2):
binder,measurement,setting,value
B1,glycan array binding signal (z-score),[5],-0.894
same,glycan array binding signal (z-score),Gal(b1-3)GlcNAc,0.44

# From the supplement of paper PMC8728848
